Consider 65 sequences from paper PMC7862700.

By UniProt entry, the sequences of proteins in these tests, tags left out. Where a name states a change or a piece, a line headed by the entry shows the natural chain unless it says otherwise.
UniProt Q99607: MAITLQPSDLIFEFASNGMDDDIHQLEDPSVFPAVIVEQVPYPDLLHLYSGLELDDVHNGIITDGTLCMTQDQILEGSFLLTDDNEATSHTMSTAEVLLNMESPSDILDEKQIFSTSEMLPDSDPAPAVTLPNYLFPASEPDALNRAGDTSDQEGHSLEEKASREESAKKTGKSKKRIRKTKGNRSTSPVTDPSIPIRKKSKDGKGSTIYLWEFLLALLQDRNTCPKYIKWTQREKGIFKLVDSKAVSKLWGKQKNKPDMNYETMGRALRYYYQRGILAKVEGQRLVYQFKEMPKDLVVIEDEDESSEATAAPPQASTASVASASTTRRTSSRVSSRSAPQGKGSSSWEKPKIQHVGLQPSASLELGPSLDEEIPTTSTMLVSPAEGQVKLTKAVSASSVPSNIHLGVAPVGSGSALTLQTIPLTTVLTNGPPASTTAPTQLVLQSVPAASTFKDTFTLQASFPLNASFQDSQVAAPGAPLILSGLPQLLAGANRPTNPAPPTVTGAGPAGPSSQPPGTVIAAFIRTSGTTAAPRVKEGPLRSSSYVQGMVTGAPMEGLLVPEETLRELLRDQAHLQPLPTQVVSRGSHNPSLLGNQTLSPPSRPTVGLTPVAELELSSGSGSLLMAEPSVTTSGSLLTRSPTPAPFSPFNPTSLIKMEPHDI
UniProt Q01892: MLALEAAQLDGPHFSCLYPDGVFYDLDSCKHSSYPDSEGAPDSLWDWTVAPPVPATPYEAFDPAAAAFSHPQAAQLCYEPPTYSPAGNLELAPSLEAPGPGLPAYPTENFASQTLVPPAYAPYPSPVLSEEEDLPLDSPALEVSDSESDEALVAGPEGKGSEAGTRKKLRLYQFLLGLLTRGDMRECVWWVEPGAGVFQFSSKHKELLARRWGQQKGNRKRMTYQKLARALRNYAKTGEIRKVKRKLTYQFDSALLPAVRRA

The entries are a selection whose mix differs from that of the whole data set. For some assays here: At the low end of the ranking the order means little.

Holding throughout (assay): DAPPL (digital affinity profiling via proximity ligation, sequencing)
Holding throughout (settings): 10 mM Tris-HCl pH 7.5, 50 mM NaCl, 1 mM DTT, 4% glycerol, room temperature, 30 min; GST-TFs on glutathione beads, 16-mer random dsDNA library, 0.1% …; high values mean tight binding; double strand, one strand shown; scale: fold enrichment (6-mer frequency, TF over GST control)

Assay [1] deals with T1, EHF (UniProt Q9NZC4).
T1 sequence: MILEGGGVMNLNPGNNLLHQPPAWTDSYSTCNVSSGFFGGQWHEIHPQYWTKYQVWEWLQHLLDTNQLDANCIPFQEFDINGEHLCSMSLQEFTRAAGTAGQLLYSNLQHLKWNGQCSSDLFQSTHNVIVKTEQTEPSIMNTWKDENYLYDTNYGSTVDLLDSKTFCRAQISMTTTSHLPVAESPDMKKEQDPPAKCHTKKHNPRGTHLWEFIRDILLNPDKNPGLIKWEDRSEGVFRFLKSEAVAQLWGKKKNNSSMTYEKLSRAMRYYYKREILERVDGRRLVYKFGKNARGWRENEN

For assay [2], the target named is ELF4 (UniProt Q99607).
The target in assay [3] is SPIB (UniProt Q01892).
For assay [4], the target named is T2, ETV2 (UniProt O00321).
T2 sequence: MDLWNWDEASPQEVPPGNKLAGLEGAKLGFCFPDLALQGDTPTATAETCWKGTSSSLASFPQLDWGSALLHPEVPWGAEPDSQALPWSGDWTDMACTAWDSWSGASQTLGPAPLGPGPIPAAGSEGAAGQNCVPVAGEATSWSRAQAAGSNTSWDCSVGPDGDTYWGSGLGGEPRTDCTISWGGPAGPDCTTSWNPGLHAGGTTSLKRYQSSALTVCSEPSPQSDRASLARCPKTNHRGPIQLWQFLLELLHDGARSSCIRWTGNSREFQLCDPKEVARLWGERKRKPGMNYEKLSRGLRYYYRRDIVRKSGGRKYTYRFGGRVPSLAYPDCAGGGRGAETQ

Assay [5] deals with T3, ETV3L (UniProt Q6ZN32).
T3 sequence: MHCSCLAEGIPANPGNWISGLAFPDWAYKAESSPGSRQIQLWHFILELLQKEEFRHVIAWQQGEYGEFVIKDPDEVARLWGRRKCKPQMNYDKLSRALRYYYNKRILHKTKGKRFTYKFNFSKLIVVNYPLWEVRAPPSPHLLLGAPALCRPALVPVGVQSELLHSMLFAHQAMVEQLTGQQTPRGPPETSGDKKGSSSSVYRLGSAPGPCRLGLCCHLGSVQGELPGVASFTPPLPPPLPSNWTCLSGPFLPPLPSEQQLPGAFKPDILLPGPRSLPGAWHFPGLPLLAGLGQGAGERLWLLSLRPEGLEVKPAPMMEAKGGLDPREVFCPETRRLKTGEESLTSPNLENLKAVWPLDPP

Take GTACCC: the binding signal came to 1.16 in assay [1] and 1.06 in assay [2].
For AAAGGG, the binding signal in assay [3] and in assay [2] was 1.19 throughout.
Take TCTTTC: the binding signal was found to be 1.43 in assay [1] and 1.32 in assay [2].
With CCGGCC, the binding signal in assay [3] turned out to be 1.18; in assay [2] it was 1.08.
As to TGGCAC, the binding signal in assay [1] was found to be 1.26; in assay [2], 1.25.
As for ATCTCA, the binding signal in assay [1] was found to be 1.25; in assay [3], 1.19; in assay [2], 1.18.
Consider CATGGG, for which the binding signal is 0.821 in assay [3] and 1 in assay [2].
Consider CCTTCT, for which the results for the binding signal in assay [1], in assay [3] and in assay [2] were 1.67, 1.56 and 1.76, respectively.
For the sequence TCACAA, the binding signal in assay [1] is 1.11; in assay [2] it was 1.12.
For CAAAGC the same measures were 0.986 and 1.05.
For ATACGG, the binding signal in assay [3] worked out at 1.23; in assay [2], 1.2.
On to CGACCA, for which the results for the binding signal in assay [1], in assay [3] and in assay [2] were 1.28, 1.16 and 1.39, respectively.
CTCATA: the binding signal in assay [1] amounted to 1.27; in assay [3], 1.48; in assay [2], 1.41.
Regarding ACTCGT, the binding signal was 1.26 in assay [3] and 1.3 in assay [2].
As for CTACTA, the binding signal in assay [1] turned out to be 1.33; in assay [2], 1.29.
Take AACTTG: the binding signal in assay [1] is 1.14; in assay [2], 1.28.
In the case of CTTTGC, the binding signal in assay [3] was 1.32; in assay [2], 1.36.
On to ACTCAC, for which the binding signal in assay [1] and in assay [2] was 1.24 each time.
Turning to TTTTGG, the binding signal in assay [3] worked out at 1.63; in assay [2], 1.41.
Turning to CTATCA, the values for the binding signal in assay [1], in assay [3] and in assay [2] were 0.991, 1.05 and 1.15, respectively.
Regarding CACGGA, the binding signal in assay [1] is 1.1; in assay [4], 0.936.
As to TCATAC, the results for the binding signal in assay [1] and in assay [4] were 1.02 and 1.15, respectively.
With TGAGCT, the binding signal in assay [1] is 1.16; in assay [3], 0.989; in assay [4], 1.19; in assay [5] it was 0.969.
With GCCTAC, the binding signal in assay [4] worked out at 1.16.
Take CACCAA: the binding signal in assay [1] was determined as 1.06; in assay [4] it was 1.12.
In assay [4], GATAAT registered a binding signal of 0.978.
Consider TTTCGG, for which the binding signal in assay [4] worked out at 1.16.
With GGTGTT, the binding signal in assay [1] turned out to be 1.04; in assay [4] it was 1.13.
Take CGGATG: the results for the binding signal in assay [3], in assay [4] and in assay [5] were 1.6, 1.39 and 1.62, respectively.
With CAACCT, the binding signal in assay [1] stood at 1.21; in assay [4] it was 1.28.
In the case of CATCAT, the binding signal in assay [1] was 1.07; in assay [4] it was 1.22; in assay [5] it was 1.07.
Take CCGCGC: the binding signal in assay [1] stood at 1.05; in assay [4], 1.29.
In the case of CACCGG, the values for the binding signal in assay [1], in assay [4] and in assay [5] were 1.13, 0.908 and 1.14, respectively.
Take GCAACC: the binding signal came out at 1.11 in assay [1] and 0.942 in assay [4].
For GTTGTT the same measures were 1.12 and 0.888.
For the sequence TGATAC, the binding signal came to 1.12 in assay [3], 0.999 in assay [4] and 1.07 in assay [5].
For the sequence GCGCGC, the binding signal was found to be 0.86 in assay [4] and 1 in assay [5].
On to ATGCCG, for which the binding signal in assay [1] turned out to be 1.16; in assay [4], 0.936; in assay [5], 0.986.
Take CCGCTG: the binding signal was 0.923 in assay [4] and 1.04 in assay [5].
For the sequence GTAGCT, the binding signal in assay [1] was 1.12; in assay [4], 0.957.
For CATAAA the same measures were 0.879 and 1.
With CCTAAC, the binding signal worked out at 1.31 in assay [1], 1.4 in assay [3], 1.41 in assay [4] and 1.45 in assay [5].
As for AGGAAC, the results for the binding signal in assay [4] and in assay [5] were 1.15 and 0.988, respectively.
Turning to TGTGCG, the binding signal in assay [1] was 0.939; in assay [4], 1.2; in assay [5], 0.941.
With AGTTCT, the values for the binding signal in assay [1] and in assay [4] were 0.988 and 0.993, respectively.
Turning to GGCCCT, the binding signal was 0.963 in assay [1], 1.14 in assay [4] and 0.995 in assay [5].
Consider CACACA, for which the binding signal in assay [4] is 1.23; in assay [5] it was 1.22.
Turning to TTACTA, the binding signal came to 1.34 in assay [4] and 1.32 in assay [5].
For the sequence GAAGTC, the binding signal in assay [3] worked out at 1.22; in assay [4], 1.08; in assay [5], 1.14.
On to TAGGGT, for which the binding signal in assay [4] is 1.16.
In the case of ACAACC, the binding signal in assay [1] amounted to 1.29; in assay [4] it was 1.26.
GCCTGC had a binding signal in assay [4] of 1.15.
Consider CAATGG, for which the figures for the binding signal in assay [1], in assay [4] and in assay [5] were 0.951, 0.858 and 0.987, respectively.
On to CAAGTT, for which the binding signal in assay [4] worked out at 1.03; in assay [5], 1.1.
With AAGGGT, the values for the binding signal in assay [4] and in assay [5] were 0.88 and 0.944, respectively.
The matching figures for GTCTTG: 0.792 and 1.04.
In turn, CGTCGC displayed a binding signal in assay [4] of 1.2.
CTCCAA: the binding signal is 1.26 in assay [1] and 1.36 in assay [4].
CTCCGA: the binding signal in assay [1] was found to be 1.39; in assay [4] it was 1.19; in assay [5] it was 1.38.
Consider TAGAAG, for which the binding signal in assay [3] is 1.24; in assay [4] it was 1.18; in assay [5], 1.17.
CCTGTG displayed a binding signal in assay [1] of 0.972.
As for ATAGAT, the binding signal in assay [1] is 1.17; in assay [5], 1.25.
Take CCAAGC: the binding signal in assay [3] stood at 0.914; in assay [5], 1.01.
Turning to CACGCA, the binding signal stood at 1.01 in assay [3] and 0.969 in assay [5].
With TCGTCA, the binding signal came to 1.02 in assay [1] and 0.968 in assay [5].
